Reference: the supplement of paper PMC10849652
The list shows a part of the results.

By UniProt entry, the sequences of proteins in these tests, tags left out. Where a name states a change or a piece, a line headed by the entry shows the natural chain unless it says otherwise.
UniProt O60232: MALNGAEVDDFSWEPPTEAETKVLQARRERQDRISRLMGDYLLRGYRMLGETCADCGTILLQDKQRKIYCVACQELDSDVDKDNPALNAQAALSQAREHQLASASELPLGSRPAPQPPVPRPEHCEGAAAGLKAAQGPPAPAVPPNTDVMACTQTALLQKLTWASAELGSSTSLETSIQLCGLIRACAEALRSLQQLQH
UniProt Q9Y5V0: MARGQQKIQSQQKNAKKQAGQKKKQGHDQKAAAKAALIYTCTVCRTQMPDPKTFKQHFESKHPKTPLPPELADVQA
UniProt Q6DD87: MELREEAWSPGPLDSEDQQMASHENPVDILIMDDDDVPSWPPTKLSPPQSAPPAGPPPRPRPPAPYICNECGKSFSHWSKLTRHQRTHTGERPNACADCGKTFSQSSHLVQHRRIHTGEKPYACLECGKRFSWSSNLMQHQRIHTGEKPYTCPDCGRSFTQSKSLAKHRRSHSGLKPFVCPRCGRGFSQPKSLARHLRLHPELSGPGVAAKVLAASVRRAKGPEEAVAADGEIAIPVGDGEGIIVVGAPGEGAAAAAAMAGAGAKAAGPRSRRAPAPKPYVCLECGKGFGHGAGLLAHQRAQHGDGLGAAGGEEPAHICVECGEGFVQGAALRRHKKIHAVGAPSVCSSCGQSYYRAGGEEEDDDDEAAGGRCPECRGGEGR
UniProt O43149: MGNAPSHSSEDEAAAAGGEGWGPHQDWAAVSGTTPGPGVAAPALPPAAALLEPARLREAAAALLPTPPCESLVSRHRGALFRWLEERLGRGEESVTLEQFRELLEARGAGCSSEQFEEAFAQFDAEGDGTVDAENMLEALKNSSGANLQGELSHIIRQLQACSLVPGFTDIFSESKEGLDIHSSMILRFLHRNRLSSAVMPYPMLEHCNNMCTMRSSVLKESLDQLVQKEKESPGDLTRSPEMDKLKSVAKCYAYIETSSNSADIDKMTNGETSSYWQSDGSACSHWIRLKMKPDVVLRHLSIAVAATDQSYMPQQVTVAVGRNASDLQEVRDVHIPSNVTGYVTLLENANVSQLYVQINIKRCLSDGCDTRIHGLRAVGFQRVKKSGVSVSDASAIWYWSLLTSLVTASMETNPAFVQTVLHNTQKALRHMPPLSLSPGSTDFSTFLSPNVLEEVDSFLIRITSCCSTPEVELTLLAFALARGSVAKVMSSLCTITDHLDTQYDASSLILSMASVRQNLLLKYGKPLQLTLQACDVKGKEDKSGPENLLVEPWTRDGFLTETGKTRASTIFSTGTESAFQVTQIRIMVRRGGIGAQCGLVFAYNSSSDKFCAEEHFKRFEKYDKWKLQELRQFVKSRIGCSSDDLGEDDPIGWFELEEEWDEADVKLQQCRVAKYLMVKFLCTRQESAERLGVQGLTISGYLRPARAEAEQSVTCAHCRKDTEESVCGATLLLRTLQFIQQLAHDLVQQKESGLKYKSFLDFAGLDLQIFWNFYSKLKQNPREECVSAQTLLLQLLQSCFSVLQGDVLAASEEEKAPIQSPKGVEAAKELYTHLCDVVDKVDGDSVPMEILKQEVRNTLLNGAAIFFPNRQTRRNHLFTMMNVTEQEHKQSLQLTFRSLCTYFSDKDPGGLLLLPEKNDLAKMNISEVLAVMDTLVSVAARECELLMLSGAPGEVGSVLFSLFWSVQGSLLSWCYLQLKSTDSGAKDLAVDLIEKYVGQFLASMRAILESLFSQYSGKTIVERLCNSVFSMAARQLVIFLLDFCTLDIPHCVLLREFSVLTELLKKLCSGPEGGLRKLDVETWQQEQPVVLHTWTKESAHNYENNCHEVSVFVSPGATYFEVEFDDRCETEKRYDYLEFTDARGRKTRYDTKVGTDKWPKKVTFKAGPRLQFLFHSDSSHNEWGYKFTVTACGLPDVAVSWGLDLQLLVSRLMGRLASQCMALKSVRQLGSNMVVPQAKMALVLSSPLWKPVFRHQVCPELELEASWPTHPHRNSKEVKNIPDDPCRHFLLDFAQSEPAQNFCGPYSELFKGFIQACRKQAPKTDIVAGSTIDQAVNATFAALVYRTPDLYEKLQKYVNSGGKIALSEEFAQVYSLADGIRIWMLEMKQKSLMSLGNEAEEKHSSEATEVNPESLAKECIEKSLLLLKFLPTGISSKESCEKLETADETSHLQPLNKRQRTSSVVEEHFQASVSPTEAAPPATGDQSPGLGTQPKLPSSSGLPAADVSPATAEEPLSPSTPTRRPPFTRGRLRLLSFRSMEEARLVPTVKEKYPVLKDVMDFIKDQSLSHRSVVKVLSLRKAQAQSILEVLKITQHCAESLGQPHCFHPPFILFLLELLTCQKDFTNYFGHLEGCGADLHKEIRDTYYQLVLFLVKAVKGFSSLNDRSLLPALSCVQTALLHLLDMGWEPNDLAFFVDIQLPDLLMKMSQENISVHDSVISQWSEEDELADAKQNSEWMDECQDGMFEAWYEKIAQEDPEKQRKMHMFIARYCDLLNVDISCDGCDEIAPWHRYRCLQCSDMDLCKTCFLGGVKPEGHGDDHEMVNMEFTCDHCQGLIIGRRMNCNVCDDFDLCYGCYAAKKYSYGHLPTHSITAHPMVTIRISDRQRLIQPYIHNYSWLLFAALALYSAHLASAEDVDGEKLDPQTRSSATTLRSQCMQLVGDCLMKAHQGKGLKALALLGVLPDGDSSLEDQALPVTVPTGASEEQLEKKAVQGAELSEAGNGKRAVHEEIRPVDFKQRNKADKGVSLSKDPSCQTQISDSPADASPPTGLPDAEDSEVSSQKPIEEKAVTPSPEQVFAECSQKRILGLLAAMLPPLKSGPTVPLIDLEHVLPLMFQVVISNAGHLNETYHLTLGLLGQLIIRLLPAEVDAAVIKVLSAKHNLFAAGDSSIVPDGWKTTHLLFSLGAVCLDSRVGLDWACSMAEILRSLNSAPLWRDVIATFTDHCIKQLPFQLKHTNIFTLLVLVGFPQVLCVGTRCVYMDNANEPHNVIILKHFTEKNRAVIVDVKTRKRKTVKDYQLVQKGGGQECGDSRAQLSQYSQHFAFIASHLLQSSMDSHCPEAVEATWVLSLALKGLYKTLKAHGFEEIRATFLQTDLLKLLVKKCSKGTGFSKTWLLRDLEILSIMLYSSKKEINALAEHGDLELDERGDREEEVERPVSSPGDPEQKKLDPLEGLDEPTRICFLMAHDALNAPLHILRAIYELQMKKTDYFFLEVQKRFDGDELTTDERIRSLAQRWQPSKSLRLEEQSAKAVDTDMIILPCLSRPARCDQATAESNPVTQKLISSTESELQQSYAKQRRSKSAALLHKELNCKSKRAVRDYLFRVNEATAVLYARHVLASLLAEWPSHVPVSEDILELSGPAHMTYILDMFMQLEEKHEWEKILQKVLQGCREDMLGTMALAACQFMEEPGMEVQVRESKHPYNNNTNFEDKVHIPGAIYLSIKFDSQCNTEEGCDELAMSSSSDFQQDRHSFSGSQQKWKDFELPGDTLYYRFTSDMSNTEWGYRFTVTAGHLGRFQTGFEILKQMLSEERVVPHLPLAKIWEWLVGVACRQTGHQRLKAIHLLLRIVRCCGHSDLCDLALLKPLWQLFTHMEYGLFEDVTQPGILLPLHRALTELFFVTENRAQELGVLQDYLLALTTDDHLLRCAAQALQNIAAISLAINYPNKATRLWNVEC
UniProt Q15776: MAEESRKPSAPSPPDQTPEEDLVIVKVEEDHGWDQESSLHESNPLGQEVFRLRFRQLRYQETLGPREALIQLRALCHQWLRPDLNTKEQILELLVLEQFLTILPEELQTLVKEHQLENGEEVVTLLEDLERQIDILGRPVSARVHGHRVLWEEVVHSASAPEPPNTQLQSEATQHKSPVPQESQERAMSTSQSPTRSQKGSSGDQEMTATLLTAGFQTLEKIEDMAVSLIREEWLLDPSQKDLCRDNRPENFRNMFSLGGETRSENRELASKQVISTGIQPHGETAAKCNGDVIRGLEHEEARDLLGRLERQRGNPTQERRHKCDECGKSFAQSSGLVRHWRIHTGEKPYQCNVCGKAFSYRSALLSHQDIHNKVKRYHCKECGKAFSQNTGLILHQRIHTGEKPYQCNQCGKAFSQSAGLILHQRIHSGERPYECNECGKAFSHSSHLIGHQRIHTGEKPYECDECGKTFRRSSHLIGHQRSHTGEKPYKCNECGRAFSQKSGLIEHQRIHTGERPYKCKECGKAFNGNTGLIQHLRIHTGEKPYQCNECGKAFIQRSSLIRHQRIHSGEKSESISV
UniProt O15014: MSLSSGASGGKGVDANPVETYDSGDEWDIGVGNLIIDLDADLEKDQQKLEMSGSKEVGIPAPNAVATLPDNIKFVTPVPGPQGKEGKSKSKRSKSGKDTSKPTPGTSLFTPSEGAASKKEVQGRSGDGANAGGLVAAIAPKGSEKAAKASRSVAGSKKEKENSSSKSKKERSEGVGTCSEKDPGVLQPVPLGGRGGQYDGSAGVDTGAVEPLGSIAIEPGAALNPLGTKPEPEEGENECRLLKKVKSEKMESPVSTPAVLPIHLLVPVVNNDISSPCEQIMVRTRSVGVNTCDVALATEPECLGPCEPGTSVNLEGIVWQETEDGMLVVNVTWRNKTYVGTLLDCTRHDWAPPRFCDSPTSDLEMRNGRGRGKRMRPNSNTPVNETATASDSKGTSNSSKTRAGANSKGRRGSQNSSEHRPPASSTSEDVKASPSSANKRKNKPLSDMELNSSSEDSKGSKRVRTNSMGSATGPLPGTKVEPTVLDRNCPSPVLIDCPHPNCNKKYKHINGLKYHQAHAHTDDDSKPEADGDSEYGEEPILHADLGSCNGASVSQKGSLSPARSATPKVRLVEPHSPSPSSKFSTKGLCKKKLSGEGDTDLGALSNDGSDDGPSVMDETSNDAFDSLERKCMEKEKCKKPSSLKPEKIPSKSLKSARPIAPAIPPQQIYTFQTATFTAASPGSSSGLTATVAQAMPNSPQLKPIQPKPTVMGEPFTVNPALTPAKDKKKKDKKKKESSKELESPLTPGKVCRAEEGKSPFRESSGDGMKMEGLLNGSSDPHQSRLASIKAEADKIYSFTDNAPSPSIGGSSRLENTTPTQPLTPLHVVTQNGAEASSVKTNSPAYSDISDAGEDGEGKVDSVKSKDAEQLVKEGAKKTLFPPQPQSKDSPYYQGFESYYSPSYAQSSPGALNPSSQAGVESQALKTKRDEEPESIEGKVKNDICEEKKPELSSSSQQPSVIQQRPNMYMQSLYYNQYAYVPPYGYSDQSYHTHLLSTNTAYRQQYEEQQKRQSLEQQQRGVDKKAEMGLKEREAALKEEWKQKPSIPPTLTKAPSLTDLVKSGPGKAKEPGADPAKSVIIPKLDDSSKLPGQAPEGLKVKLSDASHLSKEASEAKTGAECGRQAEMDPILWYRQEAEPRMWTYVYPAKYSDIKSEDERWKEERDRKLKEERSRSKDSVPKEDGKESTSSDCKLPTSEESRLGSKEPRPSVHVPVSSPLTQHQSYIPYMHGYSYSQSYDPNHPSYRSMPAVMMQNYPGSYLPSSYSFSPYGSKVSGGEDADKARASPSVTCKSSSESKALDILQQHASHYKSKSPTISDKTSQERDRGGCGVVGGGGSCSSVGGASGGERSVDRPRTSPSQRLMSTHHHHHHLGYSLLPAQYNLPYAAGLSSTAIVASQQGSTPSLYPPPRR
UniProt Q96IR2: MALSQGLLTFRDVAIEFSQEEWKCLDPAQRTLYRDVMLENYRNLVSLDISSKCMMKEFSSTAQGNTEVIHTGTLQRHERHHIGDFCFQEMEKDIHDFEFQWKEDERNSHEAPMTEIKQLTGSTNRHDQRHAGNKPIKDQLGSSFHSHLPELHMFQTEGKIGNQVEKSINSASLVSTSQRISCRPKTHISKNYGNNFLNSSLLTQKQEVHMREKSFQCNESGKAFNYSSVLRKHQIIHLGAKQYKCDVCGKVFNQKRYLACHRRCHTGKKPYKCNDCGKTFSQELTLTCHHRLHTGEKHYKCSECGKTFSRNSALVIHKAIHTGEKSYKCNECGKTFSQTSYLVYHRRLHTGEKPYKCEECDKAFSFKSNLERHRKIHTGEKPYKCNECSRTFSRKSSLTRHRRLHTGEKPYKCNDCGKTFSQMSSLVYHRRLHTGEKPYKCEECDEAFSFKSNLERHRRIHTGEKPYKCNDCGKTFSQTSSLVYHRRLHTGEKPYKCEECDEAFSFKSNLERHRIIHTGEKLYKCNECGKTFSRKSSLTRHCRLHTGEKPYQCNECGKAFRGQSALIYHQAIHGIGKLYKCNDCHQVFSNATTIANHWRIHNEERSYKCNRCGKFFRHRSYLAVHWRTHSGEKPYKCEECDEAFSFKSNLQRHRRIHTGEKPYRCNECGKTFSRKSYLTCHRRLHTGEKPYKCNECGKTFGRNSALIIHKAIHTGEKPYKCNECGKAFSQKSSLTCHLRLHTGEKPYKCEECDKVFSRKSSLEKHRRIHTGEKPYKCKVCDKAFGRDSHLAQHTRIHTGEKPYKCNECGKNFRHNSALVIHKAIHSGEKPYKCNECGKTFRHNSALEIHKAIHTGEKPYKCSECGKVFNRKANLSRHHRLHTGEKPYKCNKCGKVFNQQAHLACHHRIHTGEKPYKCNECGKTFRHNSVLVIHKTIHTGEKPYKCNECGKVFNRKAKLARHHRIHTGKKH

compound: NC1(c2ccc(-c3nc4ccn5c(=O)[nH]nc5c4cc3-c3ccccc3)cc2)CCC1; test: log2 fold change, soluble protein after heating vs DMSO (PISA); higher = thermal stabilisation; K562 lysate, 10 uM; active = over 0.2 and 3.5 SD of the protein, either way, in both replicates (recomputed)
Outline: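 Log-two fold change in thermal stability relative to solvent controls is reported from duplicates. For each sample, crude K562 extract from dounce-homogenised pellets in PBS pH 7.4 with 1 mM MgCl2, at 1 mg/mL protein, was treated with 10 μM compound for 30 min. Aliquots heated for 3 min across 48°C-58°C were pooled, brought to 0.5% NP-40 at 4°C and cleared at 21,000xg for 90 min. The supernatant was quantified by TMTpro 16plex LC-MS/MS with channel sums equalised.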

log2 fold change, inactive:
ZNF280A (UniProt P59817) -0.081
ZZZ3 (UniProt Q8IYH5) 0.043
ZNF143 (UniProt P52747) -0.01
ZNRD2 (UniProt O60232) -0.006
ZNF706 (UniProt Q9Y5V0) -0.056
ZMAT2 (UniProt Q96NC0) -0.03
ZNRD2 (UniProt G3V1B8) -0.028
ZNF148 (UniProt Q9UQR1) -0.028
ZWILCH (UniProt Q9H900) 0.004
ZNF638 (UniProt Q14966) 0.004
ZMYND8 isoform 19 (UniProt Q9ULU4) 0.043
ZNF622 (UniProt Q969S3) -0.003
ZNF787 (UniProt Q6DD87) 0.053
ZNF639 (UniProt Q9UID6) -0.006
hCG_1984214 (UniProt I3L0E3) 0
ZZEF1 (UniProt O43149) -0.03
ZKSCAN8 (UniProt Q15776) -0.064
ZMIZ1 (UniProt Q9ULJ6) -0.012
ZMIZ2 (UniProt Q8NF64) -0.078
ZNF24 (UniProt P17028) 0.051
ZNF672 (UniProt Q499Z4) 0.027
ZNF609 (UniProt O15014) 0.003
ZNF511 (UniProt Q8NB15) 0.016
ZNF207 isoform 4 (UniProt O43670) -0.014
ZNF8 (UniProt P17098) 0.034
ZSWIM8 isoform 4 (UniProt A7E2V4) -0.112
ZNF845 (UniProt Q96IR2) 0.163
ZNF644 (UniProt Q9H582) -0.167
ZNF618 (UniProt Q5T7W0) 0.015
ZHX1 (UniProt Q9UKY1) -0.011
ZNHIT6 (UniProt Q9NWK9) -0.022
ZMYM4 (UniProt Q5VZL5) -0.003
ZMYM2 (UniProt Q9UBW7) -0.033
ZMYM3 (UniProt Q14202) 0.033
ZNF318 (UniProt Q5VUA4) -0.028

9 successive entries out of the list so far, quoted:
log2 fold change, inactive:
ZNF672 (UniProt Q499Z4) 0.027
ZNF609 (UniProt O15014) 0.003
ZNF511 (UniProt Q8NB15) 0.016
ZNF207 isoform 4 (UniProt O43670) -0.014
ZNF8 (UniProt P17098) 0.034
ZSWIM8 isoform 4 (UniProt A7E2V4) -0.112
ZNF845 (UniProt Q96IR2) 0.163
ZNF644 (UniProt Q9H582) -0.167
ZNF618 (UniProt Q5T7W0) 0.015
